Literature values in article PMC6790288 (The journal of pain : official journal of the American Pain …, 2019).
pKi: −log10 of the molar value.

Molecular target: norepinephrine transporter
Settings: read-out: inhibition of norepinephrine uptake (Ki); in vitro; cited from earlier work

Structure (SMILES): COc1cccc(C2(O)CCCCC2CN(C)C)c1 (single isomer, unassigned; (-)) [(−)-tramadol]
- pKi: 5.80 to 6.30
